Experimental data taken from US9023398B2, “Method for improving the aqueous solubility of poorly-soluble substances” (Kabushiki Kaisha Sangi, priority 2009, dated 2015).
For at least one compound, name, drawing or mass did not settle the structure.

Assays:
[1] = Dissolution test of poorly-soluble substances using distilled water; format: physicochemical
[2] = Dissolution test of poorly-soluble substances using 2nd fluid for disintegration test (pH 6.8) of the Japanese Pharmacopoeia; format: physicochemical

## CC(C)(Oc1ccc(CCNC(=O)c2ccc(Cl)cc2)cc1)C(=O)O [Comparative Example 2-3, Bezafibrate]
[1]; after dissolution test for 360 minutes, distilled water, 37±0.5° C.
  Dissolved amount: 13.2 µg/mL
[1]; water, elution time 3 min
  Dissolved amount: 10.9 µg/mL
[1]; water, elution time 10 min
  Dissolved amount: 11.6 µg/mL
[1]; water, elution time 30 min
  Dissolved amount: 11.9 µg/mL
[1]; water, elution time 180 min
  Dissolved amount: 12.9 µg/mL
[1]; water, elution time 360 min
  Dissolved amount: 13.2 µg/mL
[2]; 2nd fluid for disintegration test, elution time 1 min
  Dissolved amount: 805.1 µg/mL
[2]; 2nd fluid for disintegration test, elution time 3 min
  Dissolved amount: 2552.5 µg/mL
[2]; 2nd fluid for disintegration test, elution time 10 min
  Dissolved amount: 2866.5 µg/mL
[2]; 2nd fluid for disintegration test, elution time 60 min
  Dissolved amount: 2965.5 µg/mL
[2]; 2nd fluid for disintegration test, elution time 180 min
  Dissolved amount: 3031.4 µg/mL
[2]; 2nd fluid for disintegration test, elution time 360 min
  Dissolved amount: 3096.6 µg/mL
[2]; after dissolution test for 360 minutes, Second disintegration test medium (pH 6.8), 37±0.5° C.
  Dissolved amount: 3096.6 µg/mL

## CO[C@H]1/C=C/O[C@@]2(C)Oc3c(C)c(O)c4c(O)c(c(/C=N/N5CCN(C)CC5)c(O)c4c3C2=O)NC(=O)/C(C)=C\C=C\[C@H](C)[C@H](O)[C@@H](C)[C@@H](O)[C@@H](C)[C@H](OC(C)=O)[C@@H]1C [compound 43, Rifampicin]
[1]; Rifampicin, water, elution time 3 min
  Dissolved amount: 137.7 µg/mL
[1]; Rifampicin, water, elution time 10 min
  Dissolved amount: 248.5 µg/mL
[1]; Rifampicin, water, elution time 30 min
  Dissolved amount: 392.0 µg/mL
[1]; Rifampicin, water, elution time 120 min
  Dissolved amount: 476.4 µg/mL
[1]; Rifampicin, water, elution time 360 min
  Dissolved amount: 533.3 µg/mL
[2]; Rifampicin, 2nd fluid for disintegration test, elution time 3 min
  Dissolved amount: 128.3 µg/mL
[2]; Rifampicin, 2nd fluid for disintegration test, elution time 30 min
  Dissolved amount: 349.6 µg/mL
[2]; Rifampicin, 2nd fluid for disintegration test, elution time 120 min
  Dissolved amount: 545.9 µg/mL
[2]; Rifampicin, 2nd fluid for disintegration test, elution time 360 min
  Dissolved amount: 836.0 µg/mL
